Assay results from article PMC6176987, “Correction of cognitive deficits in mouse models of Down syndrome by a pharmacological inhibitor of DYRK1A” (Disease Models & Mechanisms, 2018).

Test system: Tg(Dyrk1a) mice brain phosphoproteins
Assay: Brain phosphoproteomic analysis, Tg(Dyrk1a) mice
Assay type: in vivo, mouse
Conditions: 20 mg/kg daily i.p. 19 days
Text: All tissue samples were processed for phosphoproteomics analysis based on the enrichment and separation of proteotypic phosphopeptides with HILIC (see Materials and Methods). In Tg(Dyrk1a) and Ts65Dn mice, the hippocampus, cortex and cerebellum yielded 1384, 1523 and 2004 peptides, respectively, corresponding to 886, 948 and 1229 proteins (Table 1; Tables S1-S13).
Only biological processes common to the three brain regions and both models are presented (complete biological processes are listed in Tables S11-S13).
DYRK1A substrates and their respective phosphorylation sites were identified in the phosphoproteome based on the DYRK1A phosphorylation consensus sequence R-P-x(1,3)-S/T-P ([Himpel et al., 2000]). Protein-protein interactions of each substrate were generated with STRING web server application. Biological process enrichments of each cluster were assessed by using ToppCluster web server application. Phospho-network was mapped with the Cytoscape tool. See Supplementary Materials and Methods for details. […]
emitters (FS360-20- 10-D-20 -C7, New Objective, Woburn, MA, USA). Gaseous phase transition of the peptides was performed with positive ion electrospray ionization applying a voltage of 2.5 kV. […]
Protein Identification and Quantification. […]
Precursor Mass Tolerance 10 ppm, Fragment Mass Tolerance 20 mmu, Dynamic Modifications were Oxidation of M (+15.995 Da), Deamidation of N, Q (+0.984 Da), Phosphorylation of S (+79.966 Da) and Static Modifications were iTRAQ8plex at any N-Terminus, K, Y (+304.205 Da) and Methylthio at C (+45.988 Da). […] The Reporter Ion Quantifier node included a custom iTRAQ 8plex (Thermo Scientific Instruments) Quantification Method, integration window tolerance of 10 ppm with Most Confident Centroid. […] Only uniquely occurring peptides were used for protein relative quantification and peptides with missing iTRAQ […]
Phosphoproteomics analysis results. A total of about 70 tryptic peptide fractions were analyzed from each brain region. […]

O=C1NC(Nc2ccccc2)=N/C1=C\c1ccc2c(c1)OCO2 [L41]
Modulated proteins trisomic, L41 vs vehicle (Cerebellum): 344
Modulated proteins trisomic, L41 vs vehicle (Cortex): 240
Modulated proteins trisomic, L41 vs vehicle (Hippocampus): 267
